Data on eight sequences can be found in publication PMC4046817.

Construct, isoform or probe ends are uncertain for at least one entry. A negative result means that nothing was seen under these conditions. Protein sequences can lack the tags named with them.

For one data set, the target named is T1, Ss-LrpB (UniProt Q7LX67).
T1 sequence (looked up, limits assumed): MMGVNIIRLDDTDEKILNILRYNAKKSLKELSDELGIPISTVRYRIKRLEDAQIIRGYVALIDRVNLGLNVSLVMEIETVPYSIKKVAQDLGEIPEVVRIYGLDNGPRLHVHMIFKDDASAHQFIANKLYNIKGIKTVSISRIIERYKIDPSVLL
The data set can be described thus: EMSA. Conditions: EMSA/footprinting in LrpB binding buffer (ref. 27); composition, pH and temperature not given; recombinant protein; label: 5'-32P; probe letters rebuilt from the primers and the genome. On the technique in general: Mobility shift assays separate free from complexed probe on a gel.
As for “AGTATGGTGGTTTTCCTTAGTGGTATTTTTATTCCTAACATTTCAATCAAGATATATACTTTTCAGTTCAAATTTAAAATTAAGTACCATGTAAGTATAGTCTACTTATACATTTCAGTATCAGTAATTATTATAATTACAGTTTTATGTATTTTTCACATATCACTAGAGTTCGATATTGCTAAATAAAAGATTCGTACTATATTATGGAGATTTTCACAGCAGAAAGTAATAAGCTCTGGCTTCCTTCACCTTAAAAGGTTAAGGTTTCAGTTTTAAACACATTATGAGAATGTGCGGACCCGGCGGGATTCGAACCCGCGACCACCGGCTTTCTTCCGAAAGTTAGGAGGCCGGC (double strand) [Ssot18 fragment]”, the binding result is on record as “binds”.

On to “GACTTTATTGCCAGAAATGCAAATCTTGAAAGGATTAAGGCTTGCCACAACTATTACCCAGTCTTGTATAGTGGGATATCTAAAGAGATCTTTATAGAGAAAAATAGGATATTTAAGGAAAGAGGTATAGAGATCGGTGCGTTTATCTCTAATCCAAAGTTTAATCTCAGAACCACATTAGAGGTTTTAAGGTATGTAGAACCATTCGATTCTGCCAATTACTTGTTCAAATTCGTCGACAGAGTTTTAATAGGAGACCCCATTCCAGATTATGAAAGTTTAAGGCAAGTATCGGAAGTTTTCAAGTCTGATATTACGAAGATAAGAATTAAAGTATATGATGAAAGCGTGGGCAAAAGATTAGATAAAAAGTTTGCAGTGGAAAA (double strand) [Sso1272 fragment]”, for which the binding result is given as “binds”.

Still in this data set, the particulars now being: none or only nonspecific; EMSA/footprinting in LrpB binding buffer (ref. 27); composition, pH and temperature not given; recombinant protein; label: 5'-32P; probe letters rebuilt from the primers and the genome.
Turning to “AAGGCTGAAAAATATGACTTGCTTAACGTGATTTTGTTTTTAATAACAAATTTTGCTACAGGTGGAGTAAAATAAATCTCGGCTAGAATTTCACCCTTCTTATTCTTTATATATTCTATGCTACCTTTATTACCTTTTATGGTAGGTATATAACCGGATTCTATAATACTCAATAGAAACTCATAAAATTCCAATTCCTTTCTTAAGCTTGTAATCTTACTCTCAAGGAATTTTTTTAGTTCATCAGTGTTAACACTCATCACAAATATCTATATACATTAAACTATATATAACCTAAACTGCAATAGTTAGTTTAATGAAAGATAAAGTTAGAGTTGCCGTAGTTGGAGGTTCAGGATATACGGGCGGAGAATTACTAAGAATATTAGTTACACATCCGAAGACAGAAATATCAGTCATAACTTCTAGAGAATATGCGGGAAAACCA (double strand) [Sso0154 fragment]”, the binding result is “no binding”. The same measure, in the same setting: next, “CAGTGTGAAGGCAATTGGAATAACTGCTGATGATCTCATAAAAATAATAGAAGAGGTGGTAAGGTGAGGCCATTATTCCTTTATGCTCCCAATTTAAAGAGGTATGAGAGTGAGTTTTTAGATTCTAGAAAAGGTTGGAAATCAATATCTGTTACGGGTACTTATTGTGCATTTAACTGTAAACATTGTGGTAGGCGAGTATTAGAATCAATGATTGACGGTTCTACTCAAGGTAAAATTGAGAAAGAAATTATGGAAGCAATTAGTAGAGGAGATGAGGGAATTATACTATCTGGTGGTTCTACATCGAGAGGAGATGTTCCGATATGGAGGTATTCTAATTTATTGAAGAGATATTCCGATAGACTTACAATAATAGCTCACACTGGTGTAGTTAAAAACGAAGAAATAGCTAGGAAATTTAAGGAAAGTGGTGTGAAAATCGCATTGTTAGATATGGTATCCGATAATGATGCAATTAAAGATATTTTAGGGCAACCATTTACCG (double strand) [Sso1114 fragment]”: “no binding”; “TACGCCACAAATACCGACACCAGAAATATCTAAAAAGATAGCAAAAATTCCAGGAGTTGAAGTAGTATATGAAACTACTGGAGATTATGATATTCTAGTAATAGTTAGAGGGACAAACATTACATCAATCAATAGGACAATAGATGAGATTAGAAGCATTCAAGGTGTTGTGGGAACAAATAGTACTATTATCCTTAGAACCTGGTTCTAAAATCGTACCACTTATTACTAAAAACTTTTTCTACACAAAACTAAGTTAGTATCTAACTGACCTTCAATGGTAAATCTAAAATGTCCTATCTGTGGTGGAGAAATAACTGTAGAAGACGATGCGTTACCAGGAGAACTTGTAGAACATGAATGCGGAGCTCAATTAGAAGTTGTAAAACAAAACGGCAAATTGTCACTTAGACTAGCAGAGCAAATAGGTGAGGATTGG (double strand) [Sso5317 (lysW) fragment]”: “no binding”; “TCAGTAACTCCGATAAGTTGTTAAGGAAAGAGTTGGGCCTCTTGGATCTAACCTTTTTATCTTTAAGTGCAATGATAGGTTCTGGTTGGTTACTAGCTTCCTTAAGCGTGGCATCCATAGCGGGGCCATCTGGAATTTTATCTTGGATAATAGCTGGGATAATGGTAATGTTTATAGGGTTAGCTTATGCCGAACTTGGAAGTTCAATACCTAAAACTGGTGGTATAGTTAGATATCCAGTTTATTCCCACGGAAGTTACACTGGATTTGTCATAGCATTTCTATATCTTCTCTCGGCAATCTCTACACCTTCTATAGAAGCTTTAGCAACAATCGAATACTTAACTAATGTAAACCCTACTTTGAGTAAATTGCTTACTAACTCAACAGTTGTTAACGGCACACCAGTTACTATATTGACGCTTCCCGGATTACTGTTTTC (double strand) [Sso2043 fragment]”: “no binding”. As to “TCCCTGGGAACTTAATTATTGCAATCATTCTCTTCTCACTCTAACGAGTATTTTATGAATTATCGGATTGTATAATCTTCCCTCATTGGCAATTTTTTCAATTAAATTCTTTGCATCCTCTTCATTATTGGCCTCAATTTTGAACTGGATGTACTTTCCTACTCTCGTTTCAATTATGTTGTTTGTGTATTTCTCAATTACATATTTTTGTATTGTTTCTCCTTCTGGATCTCTAACTGAGTCTTTATTTATTATTATCAATTCTACATAGTATTTCATAAAGGGGCCCTCATGAGGTAATTCTTTTTAGAAATTCCTCATACGAGGATTTTACTGTTTTTAAATCGTAACCCTTCCTATATAAATCCTTATCATAAATTCTGGAATTACCATCTCTAATTCTCATACTATCTAACGATATTTCATCTCCAATTACTAGTTTATCGCCC (double strand) [Sso6264 fragment]”, the binding result is “no binding”. The same measure, in the same setting: the same measure for “TCTGGGAATCTAATTCTTGAAGCAATTATAACACCTATAACTGCTATCGGAATAAACCATAGAAATACATCCCTATAGTCATATCTAGTTAGTAAATAGACTTCAATTGCAGGGCCTAGGATCAAACTGGTACTAAGGCTAGTTGAGTAAAGGGATAGTAGTCTCTCAACTGATTTCTTATCATTTGCTAAACTCGCTGCTGTTATTAGATTAGGCATTACTAAACCAAAAGCAATCCCAGCGAAGATTGAGATTATCCATATTGATATTACGTTAGACAGATAATAGAGTGGTAAGGAAAGTAAAATTATAATATTCGATATAACGAACGCCCTTTTTCTTAGCTTCGAATTAAGTTCAGGATTAATAAATGTTGTGGCAATGAAGTTGAATGTAAATAATAAGGCTGATAAAAGGCCTACCATAGAGTTAGATAGCTGAAGACTATATTTCGCTAAGAGTGGAACTGTTGTAGTAACCATGTTATTTGTAGCTCTAGCTGAGATCGTCATCAGTACAAGGATTATGGCTG (double strand) [Sso1890 fragment]”: “no binding”.
